The record followed here is article PMC6827371.

Changes are numbered by the printed parent chain. These are yes or no findings as the source states them, for the method shown. Binding seen in cells or lysates may run through a third protein. A yes stands for co-enrichment or nearness to the bait. Other partners may have been found. No binding means not detected with the bait. Where a sequence is shown, tags or fusion partners need not be part of it.

Test [1] concerns the target T1, GFP-Vas^WT (Drosophila melanogaster), P09052.
T1 chain: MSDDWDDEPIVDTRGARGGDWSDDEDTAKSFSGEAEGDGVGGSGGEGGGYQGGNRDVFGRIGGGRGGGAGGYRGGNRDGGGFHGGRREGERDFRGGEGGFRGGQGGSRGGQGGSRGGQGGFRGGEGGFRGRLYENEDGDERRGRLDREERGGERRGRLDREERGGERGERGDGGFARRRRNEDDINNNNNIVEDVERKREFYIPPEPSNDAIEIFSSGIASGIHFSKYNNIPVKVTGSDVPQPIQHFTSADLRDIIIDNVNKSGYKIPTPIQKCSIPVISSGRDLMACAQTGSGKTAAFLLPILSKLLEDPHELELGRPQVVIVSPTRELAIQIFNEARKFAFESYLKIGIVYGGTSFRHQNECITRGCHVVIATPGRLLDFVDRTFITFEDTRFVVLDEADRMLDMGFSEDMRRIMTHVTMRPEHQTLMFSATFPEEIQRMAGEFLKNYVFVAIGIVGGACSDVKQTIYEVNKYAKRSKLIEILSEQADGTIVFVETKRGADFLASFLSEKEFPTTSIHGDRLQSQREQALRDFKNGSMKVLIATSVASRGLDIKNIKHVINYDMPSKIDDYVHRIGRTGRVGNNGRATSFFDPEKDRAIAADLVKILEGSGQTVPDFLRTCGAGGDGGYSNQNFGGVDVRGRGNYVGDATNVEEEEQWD
The test is described as follows: affinity purification with mass spectrometry; GFP-trap magnetic agarose beads on 20 mg ovarian protein lysate, 4° for 1 hr; washes up to 1 M NaCl, no cross-linking reagent; GFP-expressing flies as negative control; two biological replicates. Particulars: remark: other sources report otherwise.

The target of test [2] is T2, GFP-Vas^DQAD (Drosophila melanogaster) (UniProt P09052).
T2 sequence: T1 chain with E400Q
Described as above.

B1: Ago3, Q7PLK0 1-867 (protein)
chain: MSGRGNLLSLFNKNAGNMGKSISSKDHEIDSGLDFNNSESSGERLLSSHNIETDLITTLQHVNISVGRGRARLIDTLKTDDHTSNQFITSESKENITKKTKGPESEAIASENGLFFPDLIYGSKGSSVNIYCNYLKLTTDESKGVFNYEVRFFPPIDSVHLRIKYLNDHKDKLGGTKTFDGNTLYLPILLPNKMTVFISKAEDVELQIRILYKKKEEMRNCTQLYNILFDRVMKVLNYVKFDRKQFDPSRPKIIPLAKLEVWPGYVTAVDEYKGGLMLCCDVSHRILCQKTVLEMLVDLYQQNVEHYQESARKMLVGNIVLTRYNNRTYKINDICFDQNPTCQFEIKTGCTSYVEYYKQYHNINIKDVNQPLIYSIKKSRGIPAERENLQFCLIPELCYLTGLRDEVRSDNKLMREIATFTRVSPNQRQMALNKFYENVSNTPAAQEILNSWGLSLTNNSNKISGRQMDIEQIYFSKISVSAGRSAEFSKHAVTNEMLKVVHLSKWIIIHLRNYRQAATSLLDNMKQACESLGMNISNPTMISLDHDRIDAYIQALRRNITMNTQMVVCICHNRRDDRYAAIKKICCSEIPIPSQVINAKTLQNDLKIRSVVQKIVLQMNCKLGGSLWTVKIPFKNVMICGIDSYHDPSNRGNSVAAFVASINSSYSQWYSKAVVQTKREEIVNGLSASFEIALKMYRKRNGKLPTNIIIYRDGIGDGQLYTCLNYEIPQFEMVCGNRIKISYIVVQKRINTRIFSGSGIHLENPLPGTVVDQHITKSNMYDFFLVSQLVRQGTVTPTHYVVLRDDCNYGPDIIQKLSYKLCFLYYNWAGTVRIPACCMYAHKLAYLIGQSIQRDVAEALSEKLFYL
B1: in test [1], the binding result is listed as “no binding”.

B2: Ago3 (protein, UniProt Q7PLK0 1-867)
chain: B1 chain
Take B2: in test [2], the binding result is reported as “no binding”.
